We go through one molecule from publication PMC8642396, “Crystal structure of human METTL6, the m^3C methyltransferase” (Communications Biology, 2021).

The target in this assay is human METTL6 (human) (UniProt Q8TCB7). Put plainly: SEC; Superdex 200 10/300 column; 20 mM Tris-HCl pH 8.0, 150 mM NaCl, 1 mM DTT; calibrated with marker proteins; elutes at 15.8 ml, ~34.6 kDa apparent against ~35.7 kDa calculated; both purified.

These are yes or no findings as the source states them, for the method shown.

B1: human METTL6 (enzyme, UniProt Q8TCB7-1 1-284)
chain: MASLQRKGLQARILTSEEEEKLKRDQTLVSDFKQQKLEQEAQKNWDLFYKRNSTNFFKDRHWTTREFEELRSCREFEDQKLTMLEAGCGVGNCLFPLLEEDPNIFAYACDFSPRAIEYVKQNPLYDTERCKVFQCDLTKDDLLDHVPPESVDVVMLIFVLSAVHPDKMHLVLQNIYKVLKPGKSVLFRDYGLYDHAMLRFKASSKLGENFYVRQDGTRSYFFTDDFLAQLFMDTGYEEVVNEYVFRETVNKKEGLCVPRVFLQSKFLKPPKNPSPVVLGLDPKS
With B1, the binding result was “no binding”.
